Counter-ions that a name gives are not always drawn. The list shows a part of the results. Most entries show no effect beyond the scatter of the controls.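 Differential scanning fluorimetry gave melting temperatures in a one-replicate pilot screen of a library of approved drugs plus clinical or known-target compounds. Hits increasing melting point at least 2 °C were the strongest stabilizers, while negative shifts signify destabilization.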 Where a SMILES comes first, the peptide text is derived from it. [ ]: non-standard residue; d: D form. The star is where a group is joined. Benzoyl(4-tBu) = CC(C)(C)c1ccc(C(=O)*)cc1; Lys(Et2) = CCN(CC)CCCC[C@H](N)C(=O)O
test system: SARS-CoV-2 main protease (Mpro, nsp5); assay: thermal shift ΔTm of Mpro relative to plate average Tm; higher = stronger thermal stabilization of Mpro (binding); conditions: 10 µM; protein concentration 1 µM

SMILES	thermal shift ΔTm of Mpro [°C]
C[C@@H]1[C@@H](c2ccc(Cl)cc2)SC(=O)N1C(=O)NC1CCCCC1 [Hexythiazox]	0.134
CC(C(O)c1ccc(O)cc1)N1CCC(Cc2ccccc2)CC1 (configuration not stated) [Ifenprodil Tartrate]	-0.0745
CONC(=O)Nc1ccc(-c2sc3c(c2CN(C)Cc2ccccc2)c(=O)n(-c2ccccc2)c(=O)n3Cc2c(F)cccc2F)cc1 [Sufugolix]	-0.153
COC1=C[C@@H]2[C@@H]3Cc4ccc(OC)c(O)c4[C@]2(CCN3C)CC1=O [Sinomenine]	0.0242
CC(C)[C@H](N)C(=O)OCCOCn1cnc2c(=O)nc(N)[nH]c21 [Valaciclovir HCl]	0.135
COc1ccc(N(C(=O)Oc2c(C)cccc2C)c2ccnc(Nc3ccc(N4CCN(C)CC4)cc3)n2)c(OC)c1	-0.236
CC(C)N(CC[C@H](c1ccccc1)c1cc(CO)ccc1O)C(C)C	0.0572
CC[C@H](NC(=O)[C@H](C)NC)C(=O)N1C[C@@H](O)C[C@H]1Cc1c(-c2[nH]c3cc(F)ccc3c2C[C@@H]2C[C@H](O)CN2C(=O)[C@H](CC)NC(=O)[C@H](C)NC)[nH]c2cc(F)ccc12 [Birinapant]	-0.0171
O=C(Nc1cnn2ccc(N3CCC[C@@H]3c3cc(F)ccc3F)nc12)N1CC[C@H](O)C1 [Larotrectinib sulfate]	-0.0319
CN1CCN2c3ncccc3Cc3ccccc3C2C1 (configuration not stated) [Mirtazapine]	0.0913
CN(C(=O)CN(CCO)CC(=O)N(C)C(C)(C)Cc1ccccc1)C(C)(C)Cc1ccccc1 [Oxethazaine]	0.109
CC(C)(Oc1ccc(Cl)cc1)C(=O)OCCOC(=O)c1cccnc1 [Etofibrate]	-0.0781
COC(=O)N/N=C/c1c[n+]([O-])c2ccccc2[n+]1[O-] [Carbadox]	0.15
COc1cc(NS(=O)(=O)c2ccc(N)cc2)ncn1 [Sulfamonomethoxine]	0.183
CC1(C)O[C@@H]2C[C@H]3[C@@H]4C[C@H](F)C5=CC(=O)C=C[C@]5(C)[C@@]4(F)[C@@H](O)C[C@]3(C)[C@]2(C(=O)CO)O1 [Fluocinolone Acetonide]	-0.0122
CCc1nn(C)c(C(=O)NCc2ccc(Oc3ccc(C)cc3)cc2)c1Cl [Tolfenpyrad]	-0.0484
C/C(=C\c1csc(C)n1)[C@@H]1C[C@@H]2O[C@@H]2CCC[C@H](C)[C@H](O)[C@@H](C)C(=O)C(C)(C)[C@@H](O)CC(=O)O1 [Epothilone A]	0.304
Cc1cc(C)nc(NS(=O)(=O)c2ccc(N)cc2)n1 [Sulfamethazine sodium salt]	0.177
Cc1cc(C)nc(NS(=O)(=O)c2ccc(N)cc2)n1 [Sulfamethazine]	0.0264

SMILES	thermal shift ΔTm of Mpro [°C]
CC1(C)Cc2c(-c3ccccc3)c(-c3ccc(Cl)cc3)c(CC(=O)O)n2C1 [Licofelone]	0.232
CCOc1ccccc1N=Nc1c(C)[nH]n(-c2nc(-c3ccccc3)cs2)c1=O	0.145
CC(C)(C)c1cc(NC(=O)Nc2ccc(-c3cn4c(n3)sc3cc(OCCN5CCOCC5)ccc34)cc2)no1 [Quizartinib (AC220)]	0.705
CN1CCN(c2ccc(-c3cccc(CN4CCOCC4)c3)cc2NC(=O)c2c[nH]c(=O)cc2C(F)(F)F)CC1	-0.0391
CN(C)C(=O)/C(C#N)=C/c1ccc(-c2nc3cnc4[nH]ccc4c3n2C2CCCCC2)o1	0.0502
O=C(/C=C/c1cccc(S(=O)(=O)Nc2ccccc2)c1)NO [Belinostat (PXD101)]	0.222
Cc1c(N)c(=O)n(-c2ccccc2)n1C [4-Aminoantipyrine]	0.297
O=C(N=c1c(Cl)cn(O)cc1Cl)c1ccc(OC(F)F)c(OCC2CC2)c1 [Roflumilast N-oxide]	-0.0769
CCC(Sc1nnc2c3ccccc3n(CC)c2n1)C(=O)Nc1ccccc1OC (configuration not stated)	-0.00282
O=C(O)c1ccc[n+]([O-])c1 [Oxiniacic Acid]	0.184
COc1cc2nccc(Oc3ccc(NC(=O)c4cn(C(C)C)c(=O)n(-c5ccc(F)cc5)c4=O)cc3F)c2cc1OC	0.0693
CCN(CC)CCCC[C@H](NC(=O)[C@H](CC(C)C)NC(=O)[C@H](C)NC(=O)[C@H](Cc1ccccc1)NC(=O)c1ccc(C(C)(C)C)cc1)C(=O)N[C@@H](CO)C(=O)OC ({Benzoyl(4-tBu)}-FAL[Lys(Et2)]S-OMe)	0.0231
CNC(=O)c1c(F)cccc1Nc1nc(Nc2cc3c(cc2OC)CCN3C(=O)CN(C)C)nc2[nH]ccc12	-0.0672
c1ccc(Cn2c(-c3ccc(OC[C@H](C4CCNCC4)n4c(-c5ccccc5)nc5ccccc54)cc3)nc3ccccc32)cc1 [Deltarasin]	0.0301
O=C(Nc1cnc(Cl)nc1)c1ccc(F)c(F)c1	0.0348
CCN(CCCCOC(=O)c1ccc(OC)c(OC)c1)C(C)Cc1ccc(OC)cc1 (configuration not stated) [Mebeverine hydrochloride]	0.259
COc1cc(NC(=O)c2ccccn2)ccc1Cl	0.085
CCN(CC)C(=O)C1(c2ccccc2)CC1CN (configuration not stated) [Milnacipran HCl]	0.047

Some of the entries above, set out differently:
SMILES | thermal shift ΔTm of Mpro [°C]
CCOc1ccccc1N=Nc1c(C)[nH]n(-c2nc(-c3ccccc3)cs2)c1=O | 0.145
Cc1c(N)c(=O)n(-c2ccccc2)n1C [4-Aminoantipyrine] | 0.297
O=C(O)c1ccc[n+]([O-])c1 [Oxiniacic Acid] | 0.184

Reference: the supplement of paper PMC8166895
